Four molecules from patent US20250154240A1, “ANTI-HUMAN CXCL1 ANTIBODY” (CHIOME BIOSCIENCE INC., priority 2022, published 2025) can be followed below.

B1: 5A-5E11 (antibody, V domains shown)
VH: QVQLQQSGAELVRPGSSVKISCKASGYAFSDYWMNWVKQRPGQGLEWIGQIYPGDGDTNYNGKFKGKGTLTADKSSSTAYMQLNSLTSEDSAVYFCARERDYDVAMDYWGQGTSVTVSS
VL: DIQMTQSPSSLSASLGGKVTITCKASQDINKYIAWFQHKPGKGPRLVIHYTSILQPGIPSRFSGVGSGRDYSFSIRNLEPEDIATYYCLQYDNLPWTFGGGTKLEIK
B2: 028-8-12 (antibody, V domains shown)
VH: EVQLLESGGGLVQPGGSLRLSCAASGFTFSELSMSWVRQAPGKGLEWVSAISGSGGSTYYADSVKGRFTISRDNSKNTLYLQMNSLRAEDTAVYYCAREGGRLEPYYYYYAMDVWGQGTPVTVSS
VL: DIQMTQSPSSLSASVGDRVTITCRASQSISDNLHWYQQKPGKAPKLLIYDASNLESGVPSRFSGSGSGTDFTLTINSLQPEDFATYYCQQYYSTPLTFGQGTKLEIK
B3: 1A-7H10 (antibody, V domains shown)
VH: QVQLKESGPVLVAPSQSLSITCSVSGFSSTTYGVHWVRQPPGQGLEWLGVIWAGGSTNYNSALMSRLSISKDNSKSQVFLKMNSLQTDDTAMYYCATQYHYPFAYWGQGTLVTVSA
VL: NIVMTQSPKSMSMSVGERVTLSCKASENVGIYVSWYQQKPEQSPKLMIYGASNRNTGVPDRFTGSGSATDFTLTISSVQAEDLADYYCGQSYSYPLTFGAGTKLELK
B4: 4A-2F7 (antibody, V domains shown)
VH: QVTLKESGPGILKPSQTLSLTCSFSGFSLSTSGMGVDWIRQPSGKGLEWLAHIWWDDDKYYNPSLKSQLTISKDTSRNQVFLKITSVDTADTATYYCARSYGYDMDYYAMDYWGQGTSVTVSS
VL: DIQMTQSPSSLSASLGERVSLTCRASQEISGYLSWLQQKPDGTIKRLIYAASTLDSGVPKRFSGSRSGSDYSLTISSLESEDFADYYCLQYASYPPWTFGGGTKLEIK

No constants are given. Whether binding was seen depends on the method and setting. Binding can be weak; no strength is given.

In this experiment the target is cynomolgus monkey CXCL1 protein (cynomolgus monkey). Description: ELISA, CyCXCL1 immobilised on plate; ∘ = absorbance to CyCXCL1 80% or more of absorbance to HuCXCL1.
As to B1, the binding entry is given as “binds”.
For the molecule B2, the binding entry was “binds”.
As for B3, the binding result is listed as “binds”.
Turning to B4, the binding result is “binds”.
